# Laboratory results as given in PMC13557712, “Nim1-related kinases regulate septin organization and cytokinesis by modulating Hof1 at the cell division site” (eLife, 2026).
# These are yes or no findings as the source states them, for the method shown. Some entries that bind do so weakly or less than the wild type.
# T1: N-terminal Hof1 fragment (1–350 aa) (S. cerevisiae) (UniProt Q05080)
# T1 sequence: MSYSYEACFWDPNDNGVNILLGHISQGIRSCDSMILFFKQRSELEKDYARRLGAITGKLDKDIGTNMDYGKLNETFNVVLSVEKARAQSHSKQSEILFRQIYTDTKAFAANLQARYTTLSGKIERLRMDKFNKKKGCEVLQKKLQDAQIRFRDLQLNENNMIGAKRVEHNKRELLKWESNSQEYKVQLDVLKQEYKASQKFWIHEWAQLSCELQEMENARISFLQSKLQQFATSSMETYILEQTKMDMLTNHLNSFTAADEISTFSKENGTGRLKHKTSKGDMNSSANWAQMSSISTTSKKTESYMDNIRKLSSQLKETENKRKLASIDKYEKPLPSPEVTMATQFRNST
# T2: full-length Hof1 (S. cerevisiae) (UniProt Q05080)
# T2 sequence: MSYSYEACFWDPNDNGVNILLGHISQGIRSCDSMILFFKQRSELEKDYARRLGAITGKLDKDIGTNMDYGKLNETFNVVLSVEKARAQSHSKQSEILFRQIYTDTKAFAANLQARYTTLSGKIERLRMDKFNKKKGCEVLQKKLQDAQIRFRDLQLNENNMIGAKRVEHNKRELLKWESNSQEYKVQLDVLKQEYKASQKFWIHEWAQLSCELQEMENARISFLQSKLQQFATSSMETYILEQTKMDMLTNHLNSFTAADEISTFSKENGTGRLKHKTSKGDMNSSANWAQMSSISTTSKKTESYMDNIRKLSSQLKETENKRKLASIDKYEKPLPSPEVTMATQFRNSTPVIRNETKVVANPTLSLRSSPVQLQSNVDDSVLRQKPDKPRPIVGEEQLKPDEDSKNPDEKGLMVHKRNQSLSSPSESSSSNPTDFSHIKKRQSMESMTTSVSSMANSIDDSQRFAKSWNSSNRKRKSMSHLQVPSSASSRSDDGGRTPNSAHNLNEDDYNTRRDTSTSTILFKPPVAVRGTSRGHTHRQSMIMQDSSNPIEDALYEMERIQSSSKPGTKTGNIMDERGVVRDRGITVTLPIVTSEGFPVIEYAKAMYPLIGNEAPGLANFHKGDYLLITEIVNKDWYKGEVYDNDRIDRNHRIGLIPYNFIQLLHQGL
# Biological target: T1, N-terminal Hof1 fragment (1–350 aa) (S. cerevisiae)
# Assay: two-hybrid; LexA DNA-binding domain (pMM5S) and Gal4 activation domain (pMM6S) fusions; SGY37 and YPH500 mated, SC-His-Leu, 30°C, X-Gal overlay for β-galactosidase, scanned after 14–16 hr
row,binding,Binder
1,binds,"6His-bdSUMO-Gin4-KA1 (1003–1142 aa) (domain or fragment, S. cerevisiae, UniProt Q12263 1003-1142, looked up, also called 6xHis-bdSUMO-Gin4^KA1; source: E. coli BL21-DE3, purified (Ni-NTA, buffer exchange); not shown: His6, N-terminal, kept; bdSUMO, N-terminal, kept) GSQAKDHSKDHLKEHKQDKNTAIGNGSFFRKFSKSSDKTMELYAKISAKQLFNGLEKLLRGWTQYGLKNIKSHPNNLTLTGKLSSDNIFSLRSTLFEVNIYPRGKMSVVQFKKVSGSFKAVKKLVNEVENVLNKEGVLQK"

# Biological target: T2, full-length Hof1 (S. cerevisiae)
# Assay: as above
row,binding,Binder
1,binds,"6His-bdSUMO-Gin4-KA1 (1003–1142 aa) (domain or fragment, S. cerevisiae, UniProt Q12263 1003-1142, looked up, also called 6xHis-bdSUMO-Gin4^KA1; source: E. coli BL21-DE3, purified (Ni-NTA, buffer exchange); not shown: His6, N-terminal, kept; bdSUMO, N-terminal, kept) GSQAKDHSKDHLKEHKQDKNTAIGNGSFFRKFSKSSDKTMELYAKISAKQLFNGLEKLLRGWTQYGLKNIKSHPNNLTLTGKLSSDNIFSLRSTLFEVNIYPRGKMSVVQFKKVSGSFKAVKKLVNEVENVLNKEGVLQK"
2,no binding,"full-length Gin4 (protein, UniProt Q12263 1-1142) MAINGNSIPAIKDNTIGPWKLGETLGLGSTGKVQLARNGSTGQEAAVKVISKAVFNTGNVSGTSIVGSTTPDALPYGIEREIIIMKLLNHPNVLRLYDVWETNTDLYLVLEYAEKGELFNLLVERGPLPEHEAIRFFRQIIIGVSYCHALGIVHRDLKPENLLLDHKYNIKIADFGMAALETEGKLLETSCGSPHYAAPEIVSGIPYQGFASDVWSCGVILFALLTGRLPFDEEDGNIRTLLLKVQKGEFEMPSDDEISREAQDLIRKILTVDPERRIKTRDILKHPLLQKYPSIRDSKSIRGLPREDTYLTPLSESNSSIDATILQNLVILWHGRDPEGIKEKLREPGANAEKTLYALLYRFKCDTQKELIKQQQVKKRQSISSVSVSPSKKVSTTPQRRRNRESLISVTSSRKKPISFNKFTASSASSSNLTTPGSSKRLSKNFSSKKKLSTIVNQSSPTPASRNKRASVINVEKNQKRASIFSTTKKNKRSSRSIKRMSLIPSMKRESVTTKLMSTYAKLAEDDDWEYIEKETKRTSSNFATLIDEIFEYEKYEQIRKEKEELERKVREAKAREELERRRRKQEEKERARKLLEKEDLKRKQEELKKQIEIDISDLEQELSKHKEEKLDGNIRSISAPMENEEKNINHLEVDIDNILRRRNFSLQTRPVSRLDPGIMFSSPTEEVSPVEPKRTENERLTTEKKILETIRRSKFLGSSFNIDKELKLSKMEYPSIIAPQRLSEERVVSDSNDGYESLILPKDGNGVSQLKDSTATTAPVSDGRLRKISEIRVPQFTRKSRHFSESNKRLSVLSMYSTKESFTNLVDILKNGNLDVNNQQSQRIPTPRSADDSEFLFETVNEEAEYTGNSSNDERLYDVGDSTIKDKSALKLNFADRFNGSNEAKQTDNLHLPILPPLNGDNELRKQNSQEGDQAHPKIKSMIPESGSSSHTEKEEENEEKEEKKPEQHKQEEDQEKREKVVDDMEPPLNKSVQKIREKNAGSQAKDHSKDHLKEHKQDKNTAIGNGSFFRKFSKSSDKTMELYAKISAKQLFNGLEKLLRGWTQYGLKNIKSHPNNLTLTGKLSSDNIFSLRSTLFEVNIYPRGKMSVVQFKKVSGSFKAVKKLVNEVENVLNKEGVLQK"
3,binds,"Gin4 Kinase Independent Domain (KID; 290–1142 aa) (domain or fragment, UniProt Q12263 290-1142) QKYPSIRDSKSIRGLPREDTYLTPLSESNSSIDATILQNLVILWHGRDPEGIKEKLREPGANAEKTLYALLYRFKCDTQKELIKQQQVKKRQSISSVSVSPSKKVSTTPQRRRNRESLISVTSSRKKPISFNKFTASSASSSNLTTPGSSKRLSKNFSSKKKLSTIVNQSSPTPASRNKRASVINVEKNQKRASIFSTTKKNKRSSRSIKRMSLIPSMKRESVTTKLMSTYAKLAEDDDWEYIEKETKRTSSNFATLIDEIFEYEKYEQIRKEKEELERKVREAKAREELERRRRKQEEKERARKLLEKEDLKRKQEELKKQIEIDISDLEQELSKHKEEKLDGNIRSISAPMENEEKNINHLEVDIDNILRRRNFSLQTRPVSRLDPGIMFSSPTEEVSPVEPKRTENERLTTEKKILETIRRSKFLGSSFNIDKELKLSKMEYPSIIAPQRLSEERVVSDSNDGYESLILPKDGNGVSQLKDSTATTAPVSDGRLRKISEIRVPQFTRKSRHFSESNKRLSVLSMYSTKESFTNLVDILKNGNLDVNNQQSQRIPTPRSADDSEFLFETVNEEAEYTGNSSNDERLYDVGDSTIKDKSALKLNFADRFNGSNEAKQTDNLHLPILPPLNGDNELRKQNSQEGDQAHPKIKSMIPESGSSSHTEKEEENEEKEEKKPEQHKQEEDQEKREKVVDDMEPPLNKSVQKIREKNAGSQAKDHSKDHLKEHKQDKNTAIGNGSFFRKFSKSSDKTMELYAKISAKQLFNGLEKLLRGWTQYGLKNIKSHPNNLTLTGKLSSDNIFSLRSTLFEVNIYPRGKMSVVQFKKVSGSFKAVKKLVNEVENVLNKEGVLQK"
4,no binding,"Elm1 C-terminal fragment (421–640 aa) (domain or fragment, UniProt P32801 421-640) SSSSVNPVRNEGPVRRFFGRLLTKKGKKKTSGKGKDKVLVSATSKVTPSIHIDEEPDKECFSTTVLRSSPDSSDYCSSLGEEAIQVTDFLDTFCRSNESLPNLTVNNDKQNSDMKTDRSESSSHSSLKIPTPIKAMIRLKSSPKENGNRTHINCSQDKPSSPLMDRTVGKRTVNNSGARKLAHSSNILNFKAYINSEDSDIRETVEDVKTYLNFADNGQI"
5,no binding,"full-length Elm1 (protein, UniProt P32801 1-640) MSPRQLIPTLIPEWAPLSQQSCIREDELDSPPITPTSQTSSFGSSFSQQKPTYSTIIGENIHTILDEIRPYVKKITVSDQDKKTINQYTLGVSAGSGQFGYVRKAYSSTLGKVVAVKIIPKKPWNAQQYSVNQVMRQIQLWKSKGKITTNMSGNEAMRLMNIEKCRWEIFAASRLRNNVHIVRLIECLDSPFSESIWIVTNWCSLGELQWKRDDDEDILPQWKKIVISNCSVSTFAKKILEDMTKGLEYLHSQGCIHRDIKPSNILLDEEEKVAKLSDFGSCIFTPQSLPFSDANFEDCFQRELNKIVGTPAFIAPELCHLGNSKRDFVTDGFKLDIWSLGVTLYCLLYNELPFFGENEFETYHKIIEVSLSSKINGNTLNDLVIKRLLEKDVTLRISIQDLVKVLSRDQPIDSRNHSQISSSSVNPVRNEGPVRRFFGRLLTKKGKKKTSGKGKDKVLVSATSKVTPSIHIDEEPDKECFSTTVLRSSPDSSDYCSSLGEEAIQVTDFLDTFCRSNESLPNLTVNNDKQNSDMKTDRSESSSHSSLKIPTPIKAMIRLKSSPKENGNRTHINCSQDKPSSPLMDRTVGKRTVNNSGARKLAHSSNILNFKAYINSEDSDIRETVEDVKTYLNFADNGQI"
